Experimental data as given in patent publication EP3431088A1, “MNTBAP FOR USE IN INDUCING A TRANSIENT IMMUNE TOLERANCE” (priority 2017, dated 2019).
Results are given in words; binding and its absence hold for the method and conditions named. Binding seen in cells or lysates may run through a third protein. Some entries that bind do so weakly or less than the wild type.

Protein sequences, listed by entry. Tags and fused reporters are not part of them. Residues count along the entry.
UniProt P06240, residues 2-509: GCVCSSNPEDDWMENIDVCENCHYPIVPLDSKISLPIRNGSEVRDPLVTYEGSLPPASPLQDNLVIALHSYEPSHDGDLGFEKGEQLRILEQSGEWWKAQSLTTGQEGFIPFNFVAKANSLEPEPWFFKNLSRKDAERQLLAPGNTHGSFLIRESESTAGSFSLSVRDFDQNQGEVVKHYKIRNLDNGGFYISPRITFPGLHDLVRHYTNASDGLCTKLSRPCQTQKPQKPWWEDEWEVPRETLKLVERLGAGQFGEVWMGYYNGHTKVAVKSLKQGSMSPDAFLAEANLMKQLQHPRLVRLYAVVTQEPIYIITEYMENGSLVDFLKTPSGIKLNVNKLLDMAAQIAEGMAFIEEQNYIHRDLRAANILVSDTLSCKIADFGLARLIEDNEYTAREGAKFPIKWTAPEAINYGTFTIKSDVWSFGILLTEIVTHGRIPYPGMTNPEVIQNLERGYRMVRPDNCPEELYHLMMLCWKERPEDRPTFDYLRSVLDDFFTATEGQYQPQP
UniProt P06332, residues 27-457: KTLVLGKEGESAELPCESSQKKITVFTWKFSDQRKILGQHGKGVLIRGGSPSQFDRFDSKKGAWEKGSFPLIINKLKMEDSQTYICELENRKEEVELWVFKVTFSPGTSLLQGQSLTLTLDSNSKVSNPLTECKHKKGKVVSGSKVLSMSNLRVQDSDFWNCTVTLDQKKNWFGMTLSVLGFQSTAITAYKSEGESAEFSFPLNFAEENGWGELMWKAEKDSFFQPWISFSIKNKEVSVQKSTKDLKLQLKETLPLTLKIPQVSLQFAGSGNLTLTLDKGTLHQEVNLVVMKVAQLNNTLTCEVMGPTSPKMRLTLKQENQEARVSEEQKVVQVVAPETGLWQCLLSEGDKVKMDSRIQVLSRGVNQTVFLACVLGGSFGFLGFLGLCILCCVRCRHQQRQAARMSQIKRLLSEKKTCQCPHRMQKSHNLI

What was measured:
p56^Lck (mouse) [1] = molecular target: p56^Lck (mouse) (UniProt P06240); test: co-immunoprecipitation: anti-CD4 (GK1.5) IP from lysates of murine splenic CD4+ T cells, blot for p56Lck; with or without 400 uM MnTBAP for 2 hours
p56^Lck (mouse) [2] = molecular target: p56^Lck (mouse) (UniProt P06240); test: co-immunoprecipitation: anti-CD4 (GK1.5) IP from lysates of murine splenic CD4+ T cells, blot for p56Lck; with or without MnTBAP

binding (p56^Lck (mouse) [1]): binds | binding (p56^Lck (mouse) [2]): binds
Substance: murine CD4 glycoprotein (from UniProt P06332 27-457) (receptor)
